Results published in PubChem BioAssay AID720504 (National Center for Advancing Translational Sciences (NCATS), 2013).
In all, about 360,000 compounds went through this assay and about 10,000 (2.8%) were called active. The shares of active, inactive and inconclusive entries below differ from those in the screen. Calls come from the whole dose curve; as a rule, active = well fitted inhibition curve with a large enough effect; inconclusive = small, poorly fitted or top-dose-only effect; inactive = flat fitted curve, though single readings scatter. Potencies of inconclusive entries are doubtful fits and often do not repeat.

The chains behind the UniProt entries cited, without tags or fusion partners.
UniProt P53350, whole entry, looked up: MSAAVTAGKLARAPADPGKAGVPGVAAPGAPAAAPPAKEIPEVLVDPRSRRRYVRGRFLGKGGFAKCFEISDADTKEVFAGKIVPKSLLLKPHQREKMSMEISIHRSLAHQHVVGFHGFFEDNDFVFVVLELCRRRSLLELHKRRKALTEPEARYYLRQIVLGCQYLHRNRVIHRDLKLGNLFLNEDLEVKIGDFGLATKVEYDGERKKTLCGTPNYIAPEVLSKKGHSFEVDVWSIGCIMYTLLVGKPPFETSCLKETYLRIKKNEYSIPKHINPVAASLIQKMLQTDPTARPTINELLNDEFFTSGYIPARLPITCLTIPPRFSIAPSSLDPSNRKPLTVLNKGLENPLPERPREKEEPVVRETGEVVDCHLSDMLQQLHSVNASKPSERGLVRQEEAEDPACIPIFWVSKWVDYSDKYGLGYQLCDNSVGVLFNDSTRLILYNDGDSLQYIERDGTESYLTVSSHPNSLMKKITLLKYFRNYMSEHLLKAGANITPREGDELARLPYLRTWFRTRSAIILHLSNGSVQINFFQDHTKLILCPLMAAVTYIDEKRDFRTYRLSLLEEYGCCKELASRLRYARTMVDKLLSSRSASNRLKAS

biological target: Serine/threonine-protein kinase PLK1 (Homo sapiens) (UniProt P53350); assay: qHTS for Inhibitors of PLK1-PDB (polo-like kinase 1 - polo-box domain): Primary Screen; details: Plk1 PBD binding of FITC phosphopeptide, fluorescence polarization; note: nearly all actives have a fitted effect of over 65% in size; for max response, negative = inhibition: series mostly up to about 57 µM
% is set by controls: 0 for no effect and ±100 for the full control effect; potency is the fitted concentration of half-maximal effect.

| Compound | max response, negative = inhibition | Potency |
| --- | --- | --- |
| COc1cccc(O)c1CN1CCC(C(=O)Nc2ccc(Oc3cccnc3)cc2)CC1 | inactive: 0.999% | – |
| CCOC(=O)C1(Cc2ccccc2C(F)(F)F)CCN(CCCn2cccn2)CC1 | inactive: -7.15% | – |
| Cc1ccc(NC(=O)CSc2nc3ccccc3c(=O)n2CCCC(=O)NCC2CCCO2)cc1 (centres undefined) | – | active: 26.7 µM |
| O=C1C(Cl)=C(Nc2ccccc2O)C(=O)N1c1ccccc1 | – | active: 8.44 µM |
| CCC(C)(C)c1nnc(NC(=O)C2CC(=O)N(CCc3ccc(F)cc3)C2)s1 (centres undefined) | inconclusive: -32.8% [inhibitor] | – |
| COC(=O)c1ccccc1NC(=S)NC(NC(=O)COc1ccccc1)C(Cl)(Cl)Cl (centres undefined) | – | inconclusive: 26.7 µM [inhibitor, partial curve] |
| COc1ccc(CNC(=O)C(C)OC(=O)c2cccs2)cc1 (centres undefined) | inactive: -3.28% | – |
| O=C(N/N=C/c1cc(Cl)cc([N+](=O)[O-])c1O)c1cc(-c2ccccn2)nc2ccccc12 | – | inconclusive: 23.8 µM [inhibitor, single point] |
| CCc1cccc(CC)c1NC(=O)C1CCN(C(=O)c2ccco2)CC1 | – | inconclusive: 29.9 µM [inhibitor, single point] |
| C/C(=N\NS(=O)(=O)c1ccc(Br)cc1)c1ccncc1 | – | active: 5.32 µM |
| C/C(=C\c1ccc(C(=O)O)cc1)c1ccc2c(c1)C(C)(C)CCC2(C)C | – | active: 26.7 µM |
| CC(C)CC(=O)Nc1ccc(C(=O)COc2ccc(-c3nnco3)cc2)cc1 | – | inconclusive: 26.7 µM [inhibitor, partial curve] |
| O=C(COc1ccc(Br)cc1Cl)NCCCN1CCOCC1 | inactive: 2.05% | – |
| COc1ccc(CC(=O)NNS(=O)(=O)c2ccccc2[N+](=O)[O-])cc1 | inactive: -3.54% | – |
| CCOC(=O)c1sc2nc3c(SCCC(=O)O)cc(C(=O)c4cc(OC)ccc4O)cn3c(=O)c2c1C | – | inconclusive: 9.47 µM [inhibitor, partial curve] |
| Cc1cc(C)cc(NC(=O)CN(c2ccc(F)cc2)S(C)(=O)=O)c1 | – | active: 10.6 µM |
| CCOC(=O)c1cc(-c2ccccc2)sc1NC(=O)CN1C(=O)NC(CC)(c2ccccc2)C1=O (centres undefined) | inactive: 0.884% | – |
| CCOc1ccc(NC(=O)CC2C(=O)N(c3ccc(OC)cc3)C(=O)N2CCc2ccc(OC)c(OC)c2)cc1 (centres undefined) | inactive: 9.97% | – |
| CCN(CC)S(=O)(=O)c1ccc(N2CCOCC2)c(NC(=O)c2ccc(F)cc2)c1 | – | inconclusive: 26.7 µM [inhibitor, single point] |
| CCOC(=O)Nc1nnc(-c2cccc(OC)c2)s1 | – | inconclusive: 26.7 µM [inhibitor, partial curve] |
| CCc1ccc(/C=C2\SC(=S)N(CCCC(=O)Nc3ccccc3C(=O)O)C2=O)cc1 | – | active: 21.2 µM |
| COc1cccc(C2Cc3ccccc3C(=O)O2)c1 (centres undefined) | inactive: 6.98% | – |
| NC(N)=Nc1nc(CSCC/C(N)=N/S(N)(=O)=O)cs1 | – | inconclusive: 23.8 µM [inhibitor, partial curve] |
| COCCn1c(SCC(=O)Nc2ccc(F)cc2F)nc2c([nH]c3ccccc32)c1=O | inactive: -5.87% | – |
| O=C(NCC1(O)CCCCC1)C1CCC(=O)N(CCc2ccccc2)C1 (centres undefined) | inactive: -9.04% | – |

Full records as entered above:
O=C1C(Cl)=C(Nc2ccccc2O)C(=O)N1c1ccccc1 in the list: Potency: active: 8.44 µM
Cc1cc(C)cc(NC(=O)CN(c2ccc(F)cc2)S(C)(=O)=O)c1 in the list: Potency: active: 10.6 µM

For reference, 2 of the compounds above:

| Compound | max response, negative = inhibition | Potency |
| --- | --- | --- |
| Cc1ccc(NC(=O)CSc2nc3ccccc3c(=O)n2CCCC(=O)NCC2CCCO2)cc1 (centres undefined) | – | active: 26.7 µM |
| O=C1C(Cl)=C(Nc2ccccc2O)C(=O)N1c1ccccc1 | – | active: 8.44 µM |

(listing goes on)

| Compound | max response, negative = inhibition | Potency |
| --- | --- | --- |
| COc1cccc(CN2C(=O)C(C)N(C(=O)c3ccccc3)c3ccccc32)c1 (centres undefined) | inactive: -12.4% | – |
| O=C1c2ccccc2C(=O)N1CC1c2ccccc2CCN1C(=O)CN1CCOCC1 (centres undefined) | – | inconclusive: 21.2 µM [inhibitor, partial curve] |
| COc1cc(-c2cc(NC=O)c3ncc(-c4ccccc4)n3c2)cc(OC)c1OC | – | inconclusive: 23.8 µM [inhibitor, partial curve] |
| Cc1cccn2cc(CSc3ccccc3N)nc12 | – | inconclusive: 21.2 µM [inhibitor, single point] |
| CC(=O)c1ccc(NC(=O)C2CC2c2ccccc2)cc1 (centres undefined) | – | inconclusive: 29.9 µM [inhibitor, single point] |
| O=C(c1ccco1)N1CCN(C2CC(=O)N(c3ccc(F)c(Cl)c3)C2=O)CC1 (centres undefined) | inactive: -8.27% | – |
| O=C(O)c1ccc(N2C(=O)CC(SC(=NCc3ccc4c(c3)OCO4)Nc3ccc(F)cc3)C2=O)cc1 (centres undefined) | – | inconclusive: 23.8 µM [inhibitor, single point] |
| Cc1cc(-c2ccccc2)nnc1NCCN1CCOCC1 | – | inconclusive: 26.7 µM [inhibitor, single point] |
| Cc1ccc(S(=O)(=O)N2CCC(C)CC2)c([N+](=O)[O-])c1 | – | active: 23.8 µM |
| CCOc1cc(C2C(C#N)=C(N)OC(C)=C2C(C)=O)cc(Br)c1O (centres undefined) | – | active: 23.8 µM |
| O=C(Cn1cccc1C(=O)c1ccccc1)NCCc1ccc(Cl)cc1 | – | active: 23.8 µM |
| COc1ccc(C(=O)COC(=O)c2ccccc2NS(=O)(=O)c2ccc(O)c([N+](=O)[O-])c2)cc1 | – | inconclusive: 37.7 µM [inhibitor, single point] |
| O=C(c1ccc(Cl)cc1)N1CCC2CC1c1cc(-c3ccccc3)ccc12 (centres undefined) | inconclusive: -30.8% [inhibitor] | – |
| Cc1ccccc1C(=O)Nc1ccc(Br)c(C)n1 | – | inconclusive: 29.9 µM [inhibitor, single point] |
| CCC(C)N1C(=O)N(c2cccc(Cl)c2)C(C)(O)CC1(C)C (centres undefined) | inactive: -12.1% | – |
| S=C(NCc1ccco1)NCc1ccco1 | – | active: 5.97 µM |
| CC(=O)N1CCc2cc(Br)cc(S(=O)(=O)N3CCN(c4ccccn4)CC3)c21 | – | inconclusive: 21.2 µM [inhibitor, single point] |
| O=C1C(c2ccccc2)NC(=S)N1C1CCCCC1 (centres undefined) | – | inconclusive: 2.67 µM [inhibitor, full curve] |
| Cc1cc(/C(N)=N/OC(=O)c2ccccc2Cl)no1 | inactive: 4.63% | – |
| COC(=O)N1C(=O)[C@](c2ccccc2)(C(C)C)N1C(=O)OC | – | inconclusive: 18.9 µM [inhibitor, partial curve] |
| COc1cccc(/C=C2/C(=O)NN(c3ccc(F)cc3)C2=O)c1 | – | active: 5.32 µM |
| CC(C)(Sc1ccc(CCN(CCCCC2CCCCC2)C(=O)NC2CCCCC2)cc1)C(=O)O | – | active: 21.2 µM |
| Clc1ccc(C2=Nn3c(nnc3-c3cccs3)SC2)cc1 | – | inconclusive: 23.8 µM [inhibitor, partial curve] |
| CCOC(=O)c1c(N)sc2c1CCC(C)C2 (centres undefined) | – | inconclusive: 26.7 µM [inhibitor, partial curve] |
| O=C(N1CCN(c2ccccc2F)CC1)C1(c2cccs2)CCOCC1 | inactive: -3.28% | – |

| Compound | max response, negative = inhibition | Potency |
| --- | --- | --- |
| COc1ccc(-n2nc(C#N)c(Cl)cc2=O)cc1 | – | inconclusive: 23.8 µM [inhibitor, partial curve] |
| S=c1[nH]nc(-c2n[nH]c3c2CCC3)n1/N=C/C=C/c1ccccc1 | – | inconclusive: 26.7 µM [inhibitor, partial curve] |
| Oc1ccc(N=Nc2ccc(Br)cc2)c(O)c1 | inactive: -4.25% | – |
| CCOc1ccc(CC2NCCc3cc(OCC)c(OCC)cc32)cc1OCC (centres undefined) | inactive: -4.57% | – |
| CCCCCCCCC(=O)c1c(OC)oc(C=O)cc1=O | – | inconclusive: 29.9 µM [inhibitor, partial curve] |
| COCCN(C(=O)CSc1nnc(-c2cccs2)n1N)c1c(N)n(Cc2ccccc2)c(=O)[nH]c1=O | inactive: 5.1% | – |
| COc1ccccc1N1CCN(C(c2cccs2)C(C)NC(=O)c2cccs2)CC1 (centres undefined) | inactive: 0.952% | – |
| COCCNC(=O)/C(C#N)=C/c1c(N2CCN(c3cccc(Cl)c3)CC2)nc2c(C)cccn2c1=O | – | inconclusive: 21.2 µM [inhibitor, partial curve] |
| CC(=O)N1c2ccc(S(=O)(=O)N3CCC(C(=O)Nc4cccc(C(F)(F)F)c4)CC3)cc2CC1C (centres undefined) | – | active: 26.7 µM |
| Cc1ccc2c(Cn3ccnc3)cc(=O)oc2c1C | – | inconclusive: 23.8 µM [inhibitor, single point] |
| CC1=C(/C=C/C(C)=C/C=C/C(C)=C\C(=O)O)C(C)(C)CCC1 | – | inconclusive: 26.7 µM [inhibitor, partial curve] |
| O=C(NCCCN1C(=O)c2ccccc2C1=O)OCc1ccccc1 | inactive: -3.6% | – |
| Cc1cccc(OCCN2CSC(=S)N(C)C2)c1 | – | inconclusive: 29.9 µM [inhibitor, partial curve] |
| Cc1csc2nc(CSc3ccc(Cl)cc3)cn12 | – | active: 6.7 µM |
| CCNC(=O)NC(=O)CSc1ccccc1F | – | inconclusive: 23.8 µM [inhibitor, partial curve] |
| CC/C(=C(/CC)c1ccc(O)cc1)c1ccc(O)cc1 | – | inconclusive: 29.9 µM [inhibitor, partial curve] |
| CC(C)CCn1c(CN2CCN(c3cccc(Cl)c3)CC2)nc2c1c(=O)n(C)c(=O)n2C | inactive: -0.672% | – |
| O=C(Nc1ccc(S(=O)(=O)Nc2cnc3ccccc3n2)cc1)c1cc(F)c(F)cc1Cl | – | active: 29.9 µM |
| CC(NCc1ccccc1Cl)C(=O)Nc1ccc(S(=O)(=O)N2CCCC2)cc1 (centres undefined) | inactive: -0.158% | – |
| Cc1ccc(C)c(Cn2nnc3c(=O)[nH]c(C(=O)Nc4ccc(F)cc4)nc32)c1 | – | inconclusive: 29.9 µM [inhibitor, single point] |
| CC1(c2nc3ccccc3[nH]2)c2ccccc2C(=O)N1Cc1ccccc1 (centres undefined) | inactive: -10.2% | – |
| CCOc1ccc(C(C)(C)C)cc1S(=O)(=O)N1CCOCC1 | – | inconclusive: 23.8 µM [inhibitor, partial curve] |
| O=C1/C(=C\c2ccc(O)c(O)c2)C(c2ccccc2)=NN1c1ccccc1 | – | active: 15 µM |
| Cc1ccc(NC(=O)CN2CCN(C(=O)c3ccco3)CC2)cc1 | inactive: -5.01% | – |
